Data on four molecules can be found in article PMC7407560.

Chains of the proteins cited; added tags and fusions are not shown. Lines headed by an entry give the natural chain unless they say otherwise; changes in a name come on top.
UniProt P02453: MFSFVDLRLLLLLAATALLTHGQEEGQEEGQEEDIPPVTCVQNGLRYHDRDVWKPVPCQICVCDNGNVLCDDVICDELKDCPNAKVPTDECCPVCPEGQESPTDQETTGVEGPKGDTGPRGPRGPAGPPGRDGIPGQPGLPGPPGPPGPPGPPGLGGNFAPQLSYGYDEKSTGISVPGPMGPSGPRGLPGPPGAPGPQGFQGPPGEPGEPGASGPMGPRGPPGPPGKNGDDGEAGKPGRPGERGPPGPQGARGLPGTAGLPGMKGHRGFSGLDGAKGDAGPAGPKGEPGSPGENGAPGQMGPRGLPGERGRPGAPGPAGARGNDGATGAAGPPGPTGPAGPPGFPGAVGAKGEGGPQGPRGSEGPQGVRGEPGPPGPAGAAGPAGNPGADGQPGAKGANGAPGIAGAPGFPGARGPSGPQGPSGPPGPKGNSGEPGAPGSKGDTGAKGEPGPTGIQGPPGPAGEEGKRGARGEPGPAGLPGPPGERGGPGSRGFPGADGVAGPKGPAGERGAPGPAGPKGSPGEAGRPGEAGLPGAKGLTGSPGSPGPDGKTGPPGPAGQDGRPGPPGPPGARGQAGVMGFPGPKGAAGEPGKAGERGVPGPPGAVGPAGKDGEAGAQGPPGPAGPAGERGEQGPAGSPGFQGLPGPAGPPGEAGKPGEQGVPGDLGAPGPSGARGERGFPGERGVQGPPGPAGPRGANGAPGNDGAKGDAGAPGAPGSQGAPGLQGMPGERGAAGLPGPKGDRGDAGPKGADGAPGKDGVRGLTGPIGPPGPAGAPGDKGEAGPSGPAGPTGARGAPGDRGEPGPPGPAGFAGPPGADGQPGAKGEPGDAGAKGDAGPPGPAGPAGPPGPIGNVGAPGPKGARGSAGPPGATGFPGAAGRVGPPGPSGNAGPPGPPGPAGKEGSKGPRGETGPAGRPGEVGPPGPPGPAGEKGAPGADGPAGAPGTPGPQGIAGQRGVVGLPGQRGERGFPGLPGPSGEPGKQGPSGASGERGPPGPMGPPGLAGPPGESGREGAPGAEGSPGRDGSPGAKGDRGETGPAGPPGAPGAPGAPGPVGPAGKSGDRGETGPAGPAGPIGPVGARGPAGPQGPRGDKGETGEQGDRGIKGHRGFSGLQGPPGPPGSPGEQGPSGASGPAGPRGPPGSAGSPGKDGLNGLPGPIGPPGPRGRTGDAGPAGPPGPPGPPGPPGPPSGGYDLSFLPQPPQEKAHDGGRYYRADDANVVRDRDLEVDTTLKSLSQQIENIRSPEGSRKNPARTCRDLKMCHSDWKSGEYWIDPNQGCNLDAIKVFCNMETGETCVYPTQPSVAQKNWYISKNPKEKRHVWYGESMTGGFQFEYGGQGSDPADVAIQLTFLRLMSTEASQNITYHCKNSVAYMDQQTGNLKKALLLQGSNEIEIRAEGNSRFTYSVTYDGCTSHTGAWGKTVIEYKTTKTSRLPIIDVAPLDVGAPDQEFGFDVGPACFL
UniProt P02465: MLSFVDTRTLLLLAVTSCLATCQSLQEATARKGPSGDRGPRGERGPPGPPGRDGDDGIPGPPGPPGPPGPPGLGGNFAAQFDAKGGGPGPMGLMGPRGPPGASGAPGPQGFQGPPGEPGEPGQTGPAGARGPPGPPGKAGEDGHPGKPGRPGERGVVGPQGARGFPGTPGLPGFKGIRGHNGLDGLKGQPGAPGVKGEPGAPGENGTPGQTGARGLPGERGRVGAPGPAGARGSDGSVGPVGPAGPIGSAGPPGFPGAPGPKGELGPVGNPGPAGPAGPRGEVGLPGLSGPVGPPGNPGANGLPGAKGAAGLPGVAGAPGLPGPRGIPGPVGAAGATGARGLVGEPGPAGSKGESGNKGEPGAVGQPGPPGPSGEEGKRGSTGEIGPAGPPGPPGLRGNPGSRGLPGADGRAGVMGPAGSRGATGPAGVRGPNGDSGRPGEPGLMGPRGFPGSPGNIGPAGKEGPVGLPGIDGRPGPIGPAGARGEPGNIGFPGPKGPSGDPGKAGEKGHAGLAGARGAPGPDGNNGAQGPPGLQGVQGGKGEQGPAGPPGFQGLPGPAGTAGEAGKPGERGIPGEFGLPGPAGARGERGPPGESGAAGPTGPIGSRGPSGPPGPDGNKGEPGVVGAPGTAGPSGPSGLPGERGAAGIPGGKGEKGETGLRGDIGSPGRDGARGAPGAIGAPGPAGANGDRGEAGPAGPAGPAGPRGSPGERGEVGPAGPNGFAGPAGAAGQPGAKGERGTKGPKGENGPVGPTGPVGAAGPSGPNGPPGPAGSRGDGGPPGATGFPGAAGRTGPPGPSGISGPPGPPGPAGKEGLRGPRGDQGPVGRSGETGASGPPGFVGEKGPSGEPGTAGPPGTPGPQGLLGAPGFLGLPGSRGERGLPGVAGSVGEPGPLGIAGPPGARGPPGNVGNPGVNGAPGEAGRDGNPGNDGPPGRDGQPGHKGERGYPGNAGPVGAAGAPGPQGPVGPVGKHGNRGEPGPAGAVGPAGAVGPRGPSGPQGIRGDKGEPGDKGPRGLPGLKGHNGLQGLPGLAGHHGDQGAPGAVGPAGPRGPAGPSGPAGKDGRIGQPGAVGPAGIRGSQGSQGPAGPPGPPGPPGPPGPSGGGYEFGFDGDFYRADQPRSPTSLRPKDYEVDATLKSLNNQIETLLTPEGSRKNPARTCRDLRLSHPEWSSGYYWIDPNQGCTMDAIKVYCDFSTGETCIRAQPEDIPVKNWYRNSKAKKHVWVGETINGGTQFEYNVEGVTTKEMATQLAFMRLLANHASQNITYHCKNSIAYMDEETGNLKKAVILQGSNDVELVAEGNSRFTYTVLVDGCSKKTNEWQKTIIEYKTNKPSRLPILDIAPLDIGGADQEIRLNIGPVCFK
UniProt P97434: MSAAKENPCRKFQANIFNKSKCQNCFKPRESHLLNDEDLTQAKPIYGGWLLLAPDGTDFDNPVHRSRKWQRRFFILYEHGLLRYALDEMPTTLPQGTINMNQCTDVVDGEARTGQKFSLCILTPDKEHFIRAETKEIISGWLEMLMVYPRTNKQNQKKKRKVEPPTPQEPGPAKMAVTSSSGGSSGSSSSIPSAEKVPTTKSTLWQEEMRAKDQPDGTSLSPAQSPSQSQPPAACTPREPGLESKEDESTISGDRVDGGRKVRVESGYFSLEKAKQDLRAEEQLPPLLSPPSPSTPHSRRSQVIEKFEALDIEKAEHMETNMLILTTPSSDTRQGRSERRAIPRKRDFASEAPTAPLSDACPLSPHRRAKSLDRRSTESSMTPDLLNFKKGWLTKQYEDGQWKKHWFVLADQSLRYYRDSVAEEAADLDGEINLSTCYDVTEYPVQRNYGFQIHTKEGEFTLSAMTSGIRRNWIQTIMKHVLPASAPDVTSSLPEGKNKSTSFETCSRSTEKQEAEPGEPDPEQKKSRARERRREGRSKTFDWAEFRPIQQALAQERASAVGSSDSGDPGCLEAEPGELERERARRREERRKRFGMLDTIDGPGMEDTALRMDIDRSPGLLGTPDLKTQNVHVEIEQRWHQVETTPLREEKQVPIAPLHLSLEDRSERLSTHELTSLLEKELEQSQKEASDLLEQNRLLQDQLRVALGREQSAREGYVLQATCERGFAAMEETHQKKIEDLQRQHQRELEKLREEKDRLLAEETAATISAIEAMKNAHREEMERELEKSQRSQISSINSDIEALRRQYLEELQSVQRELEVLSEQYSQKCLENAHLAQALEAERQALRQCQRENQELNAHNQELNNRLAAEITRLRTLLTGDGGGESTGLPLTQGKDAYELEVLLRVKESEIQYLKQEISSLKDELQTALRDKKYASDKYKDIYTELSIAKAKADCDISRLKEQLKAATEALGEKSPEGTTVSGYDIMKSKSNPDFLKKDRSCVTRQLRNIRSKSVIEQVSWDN

Residue numbers refer to the chain shown, from its start. Numbers in names are those of the source. No constants are given. Whether binding was seen depends on the method and setting. For some of these results: Binding seen in cells or lysates may run through a third protein. Some results given as binding are weak or reduced against the parent protein; the word gives no strength. For some of these results: Sequences can lack the tags named with a protein.

Test [1] addresses fibrillar bovine type I collagen on magnetite beads (bovine) (UniProt P02453+P02465). Description: isolation of collagen bead-associated adhesion complexes; fibrillar collagen-coated magnetite beads on the dorsal surface of GD25 OE or OE MRIP-/- cells for 1 or 2 h; extraction in 0.5% Triton X-100 cytoskeleton buffer, magnetic separation, immunoblot; only the target purified. On the technique in general: In western blotting, separated proteins are transferred to a membrane and probed.

Test [2] has as its target DDR1 (b-isoform) stably overexpressed in GD25 cells (GD25 OE) (UniProt Q08345). Description: co-IP; lysates in 20 mM Tris pH 7.5, 1% Triton X-100, 0.1% SDS, 150 mM CaCl (so in the source); Dyna-beads Protein G; cells cultured on fibrillar collagen or fibronectin; GD25 OE and OE MRIP-/- cells; immunoblot.
Test [3] has as its target T1, mouse DDR1b-YFP (full-length kinase-active isoform) (mouse) (UniProt Q03146).
T1 sequence: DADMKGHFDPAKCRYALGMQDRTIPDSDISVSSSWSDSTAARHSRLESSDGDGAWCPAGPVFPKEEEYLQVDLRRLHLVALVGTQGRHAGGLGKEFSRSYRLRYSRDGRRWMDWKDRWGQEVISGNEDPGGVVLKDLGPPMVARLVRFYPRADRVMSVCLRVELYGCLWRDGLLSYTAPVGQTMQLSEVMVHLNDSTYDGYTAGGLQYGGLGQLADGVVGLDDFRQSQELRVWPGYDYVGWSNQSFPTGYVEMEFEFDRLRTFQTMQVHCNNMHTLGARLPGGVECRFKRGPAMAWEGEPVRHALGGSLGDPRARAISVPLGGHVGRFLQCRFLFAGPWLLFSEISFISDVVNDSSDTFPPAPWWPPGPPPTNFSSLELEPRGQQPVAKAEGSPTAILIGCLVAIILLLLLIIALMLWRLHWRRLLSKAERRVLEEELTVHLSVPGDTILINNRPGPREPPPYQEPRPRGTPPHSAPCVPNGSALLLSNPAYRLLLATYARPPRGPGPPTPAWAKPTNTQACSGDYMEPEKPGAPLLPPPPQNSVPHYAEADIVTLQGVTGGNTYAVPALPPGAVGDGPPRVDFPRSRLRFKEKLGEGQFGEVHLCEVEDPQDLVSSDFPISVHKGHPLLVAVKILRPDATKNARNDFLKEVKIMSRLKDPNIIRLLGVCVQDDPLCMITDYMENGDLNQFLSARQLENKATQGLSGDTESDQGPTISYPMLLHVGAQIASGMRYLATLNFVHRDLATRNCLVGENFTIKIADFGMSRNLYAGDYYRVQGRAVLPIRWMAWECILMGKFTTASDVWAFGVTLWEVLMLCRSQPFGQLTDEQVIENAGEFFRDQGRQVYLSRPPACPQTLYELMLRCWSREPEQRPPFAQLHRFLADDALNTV
Description: FRET or BRET; acceptor photobleaching FRET in cells co-transfected with CFP donor and YFP acceptor, cultured on collagen or fibronectin; GD25 WT or WT MRIP-/- cells. Background: In BRET a luciferase serves as donor, and the signal depends on an acceptor being close.

Regarding “DDR1 (b-isoform) stably overexpressed in GD25 cells (GD25 OE) (from UniProt Q08345-1 19-913) (receptor)”, in test [1], the binding entry is given as “binds”.
In the case of “myosin phosphatase Rho-interacting protein (MRIP) (from UniProt P97434 1-1024)”, the binding result in test [2] is “binds”.

B1: mouse DDR1b-YFP (full-length kinase-active isoform) (receptor, UniProt Q03146 20-911)
chain: T1 sequence
As for B1, the binding result in test [3] was “binds”.

B2: mouse DDR1b K653A-YFP (point mutation in ATP binding site) (receptor, UniProt Q03146 20-911)
chain: T1 sequence with K634A
Turning to B2, the binding entry in test [3] is reported as “binds”.
